The other results are listed elsewhere or left out.

The assay concerns the target T1, OsSMF1 (Oryza sativa, UniProt Q6ZLB0 1-436).
T1 sequence: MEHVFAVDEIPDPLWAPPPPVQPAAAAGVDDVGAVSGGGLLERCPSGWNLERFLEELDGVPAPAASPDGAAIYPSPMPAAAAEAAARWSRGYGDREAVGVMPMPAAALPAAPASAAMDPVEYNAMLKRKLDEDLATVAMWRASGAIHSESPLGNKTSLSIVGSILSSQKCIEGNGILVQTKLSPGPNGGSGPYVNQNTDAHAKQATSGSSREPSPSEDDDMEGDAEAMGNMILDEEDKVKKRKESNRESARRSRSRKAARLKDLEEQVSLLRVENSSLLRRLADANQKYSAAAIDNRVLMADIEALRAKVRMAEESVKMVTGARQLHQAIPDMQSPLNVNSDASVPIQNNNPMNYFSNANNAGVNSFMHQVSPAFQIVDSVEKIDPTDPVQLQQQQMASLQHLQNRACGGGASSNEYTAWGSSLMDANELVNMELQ
As to the kind of experiment: protein-binding microarray (RPBM); PBS, 2% BSA, 51.3 ng/ul salmon testes DNA, 50 uM zinc acetate, 200 nM TF, 25 C, 1 h; high values mean tight binding. The following applies: protein: recombinant; tags: N-terminal polyhistidine and DsRed monomer fusion (pET32a); chain copies: 2; label: CyDye5-dUTP incorporated in the synthesized complementary strand; 3' TTTTT single-stranded linker to array surface; dsDNA, one strand shown. The procedure, abridged:
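In PBS with 2% BSA, salmon testes DNA and 50 µM zinc acetate, 200 nM protein was incubated on a custom Agilent array at 25 °C for 1 h and then washed off. The array had been made double-stranded by primer extension with Cy5-dUTP and blocked with 2% BSA. The proteins were transcription factors fused N-terminally to polyhistidine and DsRed, expressed in E. coli BL21-CodonPlus and purified on Ni–NTA. The binding signal is per-feature fluorescence intensity (arbitrary units) from an Axon 4000B scanner.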
As to “ACGTTGTATGTATGATCCACCGTGGCGTGGCTTTGAAGAACGGAGTCACCTAGTGCAG”, the binding signal is 4140 fluorescence intensity (a.u.). The figure for “CGCGTGGAGCGGGCCCAGGTAGGACACGTGTCGCGCGCAGCGGAGTCACCTAGTGCAG” is 13400 fluorescence intensity (a.u.). The figure for “GTCAGCCTCAGCTGAACTGTCAGTCGGTTACACTGCGTGGCGGAGTCACCTAGTGCAG” is 3770 fluorescence intensity (a.u.); for “GATCCTTACCCGTTCCTCTTGACATCACCCGTTGCCGTTCCGGAGTCACCTAGTGCAG” it is 3590 fluorescence intensity (a.u.).

In the case of “CAACCTGTCATACACACATAACTTTTCAGTTACATCATCTCGGAGTCACCTAGTGCAG”, the binding signal was 3720 fluorescence intensity (a.u.). In the case of “AAATTAGCTAATACAAAAGTATCGGGTCAGGCATGGGTTACGGAGTCACCTAGTGCAG”, the binding signal was 3180 fluorescence intensity (a.u.). To “CAAACCAAGTCACGGTACACGCGTGGACCGCGCACAGATTCGGAGTCACCTAGTGCAG” belongs 3720 fluorescence intensity (a.u.); to “TGCTTCTGATACTCACGTATATTTCATACACACGTGAATGCGGAGTCACCTAGTGCAG”, 3210 fluorescence intensity (a.u.); to “TCGGGTCTCCGCGATGCCGACGCGGACGCCATCGGAGCGCCGGAGTCACCTAGTGCAG”, 3730 fluorescence intensity (a.u.). The figure for “ACCAGATACTACTCTAATATCATCGTCATGACATGGAGTACGGAGTCACCTAGTGCAG” is 5240 fluorescence intensity (a.u.); for “ACCCACCTATTTTACCCTAGCCTAGTTTGCCACGACCTGGCGGAGTCACCTAGTGCAG” it is 3980 fluorescence intensity (a.u.). To “CAGTTAACCACCTAACTGATCAAACTCATTCATGTCACTCCGGAGTCACCTAGTGCAG” belongs 5110 fluorescence intensity (a.u.); to “GTGCAGGTAATTGACAGATCATTTGGTTTCGACACTGCAGCGGAGTCACCTAGTGCAG”, 4100 fluorescence intensity (a.u.). For “TGGACGGCGTCGCGCGCGGCATATGGATGGACACGGCACCCGGAGTCACCTAGTGCAG”, the binding signal was 3460 fluorescence intensity (a.u.). To “ATGTCTAAACTATCTTAGGACTACATTTACGCTGGTTTTGCGGAGTCACCTAGTGCAG” belongs 3280 fluorescence intensity (a.u.); to “AGTAGTGAAGATCATCTCTATCGGAATTAGAGTATCAACACGGAGTCACCTAGTGCAG”, 18300 fluorescence intensity (a.u.); to “GCCGACGCCGCGAGGGGCTACGTCACCGTCTCCACATCCACGGAGTCACCTAGTGCAG”, 9850 fluorescence intensity (a.u.). To “CGCAGGCAGATCGGGTTAGTCACCGTCTCTCCGCCGCCGTCGGAGTCACCTAGTGCAG” belongs 3530 fluorescence intensity (a.u.); to “GATGTGTGGTGATGGCCTAGGATGTGGGATGGATTTGTGGCGGAGTCACCTAGTGCAG”, 4440 fluorescence intensity (a.u.); to “CCATCCATCCAATCGCCACCTGAGGTGGAATGTTTGTTTCCGGAGTCACCTAGTGCAG”, 3550 fluorescence intensity (a.u.).

Turning to “ATCACCGCTTACACCACACCCCGTGACGTGTCACTTTCCACGGAGTCACCTAGTGCAG”, the binding signal is 20700 fluorescence intensity (a.u.). To “TTTACCATTGCGGGTGCTCTAATAGGTGGCATGCCATGCGCGGAGTCACCTAGTGCAG” belongs 4740 fluorescence intensity (a.u.); to “TTGTGTTCAGCTGGTCGAAGCAGCGCGGCCGCTGGCGTGGCGGAGTCACCTAGTGCAG”, 31700 fluorescence intensity (a.u.); to “TTAATTTGATGCTACTAGGTCACTACTATTTTGGTACTATCGGAGTCACCTAGTGCAG”, 4590 fluorescence intensity (a.u.). To “GACATGTGTATCATGTCGGTACAATTTATGACATCAACATCGGAGTCACCTAGTGCAG” belongs 3660 fluorescence intensity (a.u.); to “TTGATCGATTCGGCAGAGTTTGCTTTGTCCACTTCATCGGCGGAGTCACCTAGTGCAG”, 3400 fluorescence intensity (a.u.); to “AGCCCCAACGAGCCCCAACGAGCCCCAACGGTGAATCCGCCGGAGTCACCTAGTGCAG”, 3520 fluorescence intensity (a.u.). To “TCTGAATGGACACGTTTTACAATCACATCACATAGAGTAACGGAGTCACCTAGTGCAG” belongs 3140 fluorescence intensity (a.u.); to “TACACTCCAGCATCCAACTCACCATCTCCTCCTGTCCTCCCGGAGTCACCTAGTGCAG”, 4570 fluorescence intensity (a.u.); to “TTTGGGTCACCGACATGTGGGGACAGGTGTGGACCGGCGTCGGAGTCACCTAGTGCAG”, 16700 fluorescence intensity (a.u.). Regarding “CCCGCCGCCAGCTTCCCGTTGACTAGGATTGTTGACCCTACGGAGTCACCTAGTGCAG”, the binding signal is 5480 fluorescence intensity (a.u.). To “ATACATACATGGGAGCAAGTATTAGTATGTCAATGTAATGCGGAGTCACCTAGTGCAG” belongs 3910 fluorescence intensity (a.u.); to “AATAATTTATAAATTGTTGCGTGTATTTGTACTTAGCATACGGAGTCACCTAGTGCAG”, 4470 fluorescence intensity (a.u.). The figure for “GGGAAAATCGACCACCCACGACAGCTGACGTCAGCATGTACGGAGTCACCTAGTGCAG” is 20400 fluorescence intensity (a.u.); for “GAGCACGTAAGAACACACATGTACACCCCAGCTACGTACGCGGAGTCACCTAGTGCAG” it is 3700 fluorescence intensity (a.u.). To “TTTTATAATTGTTCGAGCTTAGCGGCGTCGCTGACTCCGACGGAGTCACCTAGTGCAG” belongs 4420 fluorescence intensity (a.u.). Turning to “AATGAAGGGGAGTCGATGACTCCGCTGTCCGCTCTGCCTACGGAGTCACCTAGTGCAG”, the binding signal is 3350 fluorescence intensity (a.u.). On to “CCCACACGTTAGTGACTCAATGTCACGGGAATGTCACCGGCGGAGTCACCTAGTGCAG”, for which the binding signal was 5320 fluorescence intensity (a.u.).

Take “TGCTCAGCTCTGTCATGCAATGCAACAGGCCGTGCCAACGCGGAGTCACCTAGTGCAG”: the binding signal was 3300 fluorescence intensity (a.u.). The figure for “TTTAGGAATACATGTCTGGCTTCTGTTCATACGTAAAGGGCGGAGTCACCTAGTGCAG” is 3140 fluorescence intensity (a.u.); for “GATAGTCTCTACCCCATCTAATCTAGCCTATCGCTCTTGTCGGAGTCACCTAGTGCAG” it is 3340 fluorescence intensity (a.u.). Regarding “GAGACCCACCGTCTGCCGTGGCGCCGTGGCGGGGACGACGCGGAGTCACCTAGTGCAG”, the binding signal is 4110 fluorescence intensity (a.u.). To “CTCGCAGTCGTCGCAGCTGGCTCAGCTCAACCTCTCCAGCCGGAGTCACCTAGTGCAG” belongs 3220 fluorescence intensity (a.u.). The figure for “AAAGTGACTGTAGATGATGTATTAATTTTGAAAGGTAGCACGGAGTCACCTAGTGCAG” is 4440 fluorescence intensity (a.u.); for “ATTCCCTCGTCGCCAGCGGTTTCGCGTTGCCGCGTTCGTCCGGAGTCACCTAGTGCAG” it is 3840 fluorescence intensity (a.u.); for “AGATGGCGGCGGCGGCGCAGATCCGGCCTCCACGCGCGCACGGAGTCACCTAGTGCAG” it is 3940 fluorescence intensity (a.u.).

As for “TTTTCTTTTATTTTCCACCGGTACTGTTCATTGCGCACCACGGAGTCACCTAGTGCAG”, the binding signal is 3270 fluorescence intensity (a.u.). To “TTTTCTCATCCTAAATTCCTAATAACTAGAAAAGATGACCCGGAGTCACCTAGTGCAG” belongs 26000 fluorescence intensity (a.u.); to “GTGAGTTGGGAACTCTAAGTTCCGAATACACCTGGCTAACCGGAGTCACCTAGTGCAG”, 32800 fluorescence intensity (a.u.).

For “TCACCGTTAACACCACTGTTGGCTGGCCGCACCTACCTCTCGGAGTCACCTAGTGCAG”, the binding signal was 3350 fluorescence intensity (a.u.). The figure for “TGGCGGCTATCCCCGGAGTCACTGCCACGTGGGGCCCAGCCGGAGTCACCTAGTGCAG” is 33200 fluorescence intensity (a.u.); for “CGACGGTCGCCACCGTCGCCGTTGCCGTCGTGTCTCAGGCCGGAGTCACCTAGTGCAG” it is 3340 fluorescence intensity (a.u.). Turning to “AAATTGTCATTGTTTGCTGGCTGATTTTATCATCATTTTCCGGAGTCACCTAGTGCAG”, the binding signal was 3360 fluorescence intensity (a.u.). To “GAGGCGATCGCCGGGGTACGCGTGCTGAATTACCTCAACCCGGAGTCACCTAGTGCAG” belongs 3440 fluorescence intensity (a.u.).

Values taken from publication PMC7819943, “Rice protein-binding microarrays: a tool to detect cis-acting elements near promoter regions in rice”.
